Earlier results as cited in patent publication US20130303614A1, “AGENT FOR INHIBITING ELEVATION IN BLOOD GLUCOSE LEVEL” (NIPPON SUISAN KAISHA, LTD., priority 2010, published 2013).
At least one compound was matched to its structure with a doubt left.

How the values were obtained:
[1] = system: GLP-1 secretion; conditions: mice; free fatty acids administered directly into the colon
[2] = target: T1, G-protein coupled receptor GPR120 (Homo sapiens, UniProt Q5NUL3); conditions: free fatty acids
T1 sequence (Q5NUL3 1-361): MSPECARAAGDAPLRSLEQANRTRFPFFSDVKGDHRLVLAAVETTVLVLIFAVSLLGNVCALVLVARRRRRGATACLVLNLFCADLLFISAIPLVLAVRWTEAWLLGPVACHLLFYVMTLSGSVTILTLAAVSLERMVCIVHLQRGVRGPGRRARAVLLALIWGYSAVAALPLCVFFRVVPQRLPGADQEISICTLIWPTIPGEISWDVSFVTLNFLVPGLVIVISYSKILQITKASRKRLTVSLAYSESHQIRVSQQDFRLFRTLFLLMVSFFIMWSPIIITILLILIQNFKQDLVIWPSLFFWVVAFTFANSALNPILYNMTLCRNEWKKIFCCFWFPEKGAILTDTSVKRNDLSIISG

| SMILES | GLP-1 secretion [1] | ligand for GPR120 [2] |
| --- | --- | --- |
| CC/C=C\C/C=C\C/C=C\C/C=C\C/C=C\C/C=C\CCC(=O)O [DHA, docosahexaenoic acid] | promotes GLP-1 secretion |  |
| CC/C=C\C/C=C\C/C=C\C/C=C\C/C=C\CCCC(=O)O [EPA, eicosapentaenoic acid] | promotes GLP-1 secretion | act as a ligand for GPR120 |
